According to patent publication US20220275025A1, “BONE REMODELING REGULATORY PEPTIDES AND APPLICATION THEREOF” (THE SECOND XIANGYA HOSPITAL OF CENTRAL SOUTH UNIVERSITY, priority 2019, published 2022):
Some entries share one result that the patent states for a list of compounds. Square brackets hold non-standard residues; d marks the D form. Ends that are not written are not given here. Peptide text beside a SMILES is read from it. Hyp = O=C(O)[C@@H]1C[C@@H](O)CN1

Key:
Type in all cases: cell-based, mouse
Primary pre-osteoblasts = assay: Osteoblast differentiation, ALP staining
Protocol: 2) After skulls of the wild-type mice were aseptically isolated, cells were isolated by collagenase digestion and nucleated cells were obtained by density gradient centrifugation. Cells were induced to differentiate into osteoblasts by medium containing 10 mM β-sodium glycerophosphate, 50 μM vitamin C and 10^−7 M dexamethasone and identified by ALP staining (FIG. 1D). The expression of the collagen receptor OSCAR on pre-osteoblasts induced for 0th, 7th, 14th, 21st, and 35th day and MLO-Y4 bone cell lines was determined by immunohistochemistry (FIG. 1E) and Western blot (FIG. 1F).
4) Primary pre-osteoblasts were cultured in vitro according to the method in Part 1 above. Then, cells were treated with different concentrations of 5 segments of collagen peptides, and induced to differentiate into osteoblast by 10 mM […], 50 μM vitamin C and 10^−7 M dexamethasone at the same time. The effect of the collagen peptides on osteoblast differentiation was verified by ALP staining. It was confirmed that the bone remodeling regulatory peptides could inhibit osteoblast differentiation and bone formation at low concentration and promote osteoblast differentiation and bone formation at high concentration (FIG. 6C). […] The type II collagen peptide (OSC^pep) can inhibit osteoblast differentiation and bone formation at the concentration of <8000 μg/mL (preferably 1000-5000 μg/mL), and can promote osteoblast differentiation and bone formation at the concentration of ≥8000 μg/mL (preferably 8000-10000 μg/mL).

Primary BMMs = assay: Osteoclast differentiation induced by M-CSF and RANKL, TRAP staining; settings: for concentration that inhibits osteoclast differentiation: high concentration; for concentration that promotes osteoclast differentiation: low concentration
Protocol: 1) Bilateral femurs and tibias of wild-type female mice were aseptically isolated, and bone marrow cells were obtained by repeatedly washing bone marrow cavities with culture medium. After culturing in α-MEM complete medium containing M-CSF (30 ng/mL) for 24-hour, nonadherent cells were suctioned, centrifuged, and resuspended, and then cultured in the α-MEM complete medium containing M-CSF (30 ng/mL) for 3 days to obtain adherent mouse primary bone marrow mononuclear macrophages (osteoclast precursor cells). Osteoclast precursor cells were conducted by M-CSF (50 ng/mL) and RANKL (100 ng/mL) to obtain osteoclast and identified by TRAP staining (FIG. 1A). The expression of the collagen receptor OSCAR on osteoclast precursor cells and osteoclasts were determined by immunofluorescence (FIG. 1B) and Western blot (FIG. 1C).
2) Primary BMMs were treated with different concentrations of 5 collagen peptides, and induced to differentiate into osteoclasts by M-CSF and RANKL. The effect of different concentrations of collagen peptides on osteoclast differentiation was verified by TRAP staining. It was confirmed that all of the bone remodeling regulatory peptides could promote osteoclast differentiation at low concentration and inhibit osteoclast differentiation at high concentration (FIG. 6A).

osteoclasts = assay: Bone resorption of osteoclasts in peptide-primary BMMs-bone slice culture system, WGA staining; settings: for concentration that inhibits bone resorption: high concentration; for concentration that promotes bone resorption: low concentration
Excerpt: 3) Different concentrations of bone remodeling regulatory peptides-primary BMMs-bone slice culture system was constructed by using the above-mentioned method, and the cells in the system were induced to differentiate into osteoclasts by M-CSF and RANKL at the same time. The effect of collagen peptides on bone resorption of osteoclasts was verified by wheat germ agglutinin (WGA) staining. It was confirmed that all of the bone remodeling regulatory peptides could promote bone resorption of osteoclasts at low concentration and inhibit bone resorption of osteoclasts at high concentration (FIG. 6B).

Molecule	concentration that inhibits osteoblast differentiation and bone formation (Primary pre-osteoblasts) [µg/mL]	concentration that promotes osteoblast differentiation and bone formation (Primary pre-osteoblasts) [µg/mL]	concentration that inhibits osteoclast differentiation (Primary BMMs) [µg/mL]	concentration that promotes osteoclast differentiation (Primary BMMs) [µg/mL]	concentration that inhibits bone resorption (osteoclasts) [µg/mL]	concentration that promotes bone resorption (osteoclasts) [µg/mL]
C[C@H](NC(=O)[C@H](Cc1ccccc1)NC(=O)CNC(=O)[C@H](C)NC(=O)[C@@H]1CCCN1C(=O)CNC(=O)[C@@H]1C[C@@H](O)CN1C(=O)[C@@H]1CCCN1C(=O)CN)C(=O)O [A1-4-1, Gly-Pro-Pro-Gly-Pro-Ala-Gly-Phe-Ala] (H-GP[Hyp]GPAGFA-OH)	< 500	≥ 500	≥ 500	< 500	≥ 500	< 500
GPPGATGFP [A1-5-3]	< 500	≥ 500	≥ 500	< 500	≥ 500	< 500
C[C@H](NC(=O)CN)C(=O)N1C[C@H](O)C[C@H]1C(=O)NCC(=O)N1CCC[C@H]1C(=O)N[C@@H](CCC(N)=O)C(=O)NCC(=O)N[C@@H](Cc1ccccc1)C(=O)N[C@@H](CCC(N)=O)C(=O)O [A1-1, Gly-Ala-Pro-Gly-Pro-Gln-Gly-Phe-Gln] (H-GA[Hyp]GPQGFQ-OH)	< 500	≥ 500	≥ 500	< 500	≥ 500	< 500
GAPGAPGSQ [A1-2-1]	< 500	≥ 500	≥ 500	< 500	≥ 500	< 500
